Laboratory results reported in PubChem BioAssay AID248 (DTP/NCI, 2004).
The list shows only some results of the screen, not a fair sample: it is rich in T/C values a quarter to a half above the control, in often repeated tests (any T/C) and in doses without a T/C. Other doses and runs of a compound stand elsewhere. T/C: endpoint of the treated group in % of that of the vehicle group. Some entries give survivors of the animals treated and no T/C: the source holds a T/C of zero for them, seemingly a mark for toxic or unscored doses. Some survivor counts are full or nearly so, which does not show that the dose was tolerated: the source hardly ever lists a survival T/C far under the control, and the zero likely stands for such cases as well. Survivors were counted at the toxicity check, usually on the fifth day, unless a day is given; later deaths do not show. Schedule codes are those of the source, taken here to give the interval after Q, in days (D) or hours (H), and the number of doses after X. Some schedules carry Z or #; the key to these is not given. Where survival is the endpoint, this PubChem deposit counts one and a half times the control or more as active, and values a quarter to a half above the control carry no call in these data; other NCI protocols may use other cut-offs. Some entries hold several experiments; the results are listed from low to high.

System: L1210 leukemia ip in BDF1 mice, survival T/C
Experiment: NCI In Vivo Anticancer Drug Screen. Data for tumor model L1210 Leukemia (intraperitoneal) in B6D2F1 (BDF1) mice
Conditions: T/C endpoint: mean survival time, higher T/C = longer survival
[1] = dose: 75.0 mg/kg/injection, schedule: Q01DX001 (ip), vehicle: saline
[2] = dose: 150.0 mg/kg/injection, schedule: Q01DX001 (ip), vehicle: saline
[3] = dose: 300.0 mg/kg/injection, schedule: Q01DX001 (ip), vehicle: saline
[4] = dose: 400.0 mg/kg/injection, schedule: Q04DX003 (ip), vehicle: Klucel (hydroxypropylcellulose) (HPC)
[5] = dose: 200.0 mg/kg/injection, schedule: Q04DX003 (ip), vehicle: saline
[6] = dose: 400.0 mg/kg/injection, schedule: Q04DX003 (ip), vehicle: saline
[7] = dose: 400.0 mg/kg/injection, schedule: Q01DX009 (ip), vehicle: saline
[8] = dose: 400.0 mg/kg/injection, schedule: Q01DX009 (ip), vehicle: Klucel (hydroxypropylcellulose) (HPC)
[9] = dose: 400.0 mg/kg/injection, schedule: Q04DX003 (ip), vehicle: acetone

In the case of `CCC(C)C1(C)C(=O)N(C)C(=S)N(C)C1=O` (centres undefined), the survivor count [1] is reported as 3 of 6, the survivor count (dose: 80.0 mg/kg/injection, schedule: Q01DX001 (ip), vehicle: saline) is reported as 1 of 6 and the survivor count [2] is reported as 3 of 6. For the same molecule, the survivor count [3] was 0 of 6.

For `CCCNS(=O)(=O)c1ccc(Cl)c([N+](=O)[O-])c1`, the survivor count [4] was 3 of 6.

In the case of `O=Nc1c(N=O)c(N=O)c(N=O)c(N=O)c1N=O`, the survivor count (dose: 16.0 mg/kg/injection, schedule: Q01DX015 (ip), vehicle: carboxymethylcellulose (CMC)) is reported as 3 of 6, the survivor count (dose: 32.0 mg/kg/injection, schedule: Q01DX015 (ip), vehicle: carboxymethylcellulose (CMC)) is reported as 0 of 6 and the survivor count (dose: 64.0 mg/kg/injection, schedule: Q01DX015 (ip), vehicle: carboxymethylcellulose (CMC)) is reported as 0 of 6. The survivor count (dose: 100.0 mg/kg/injection, schedule: Q04DX003 (ip), vehicle: saline) was 3 of 6, the survivor count [5] was 0 of 6 and the survivor count [6] was 1 of 6. For the same molecule, the survivor count (dose: 800.0 mg/kg/injection, schedule: Q01DX001 (ip), vehicle: saline) was 0 of 4 and the survivor count (dose: 1600.0 mg/kg/injection, schedule: Q01DX001 (ip), vehicle: saline) was 0 of 4.

For `CN(C)c1ccc(C=NCCCO)cc1`, the survivor count (dose: 400.0 mg/kg/injection, schedule: Q04DX002 (ip), vehicle: saline with Tween-80) was 1 of 3.

With `O=COCC(O)COC=O` the survivor count (dose: 200.0 mg/kg/injection, schedule: Q01DX009 (ip), vehicle: saline) was 6 of 6 and the survivor count [7] was 3 of 6.

In the case of `CC(C)=CCN(CC=C(C)C)CCC(C#N)(CCN(CC=C(C)C)CC=C(C)C)c1cccc2ccccc12`, the survivor count (dose: 200.0 mg/kg/injection, schedule: Q01DX009 (ip), vehicle: Klucel (hydroxypropylcellulose) (HPC)) is reported as 0 of 6 and the survivor count [8] is reported as 0 of 6.

With `NC(N)=N/N=C(\c1ccc(F)cc1)C1CC1` the survivor count (dose: 60.0 mg/kg/injection, schedule: Q01DX Z (ip), vehicle: methylcellulose (MC)) was 1 of 6, the survivor count (dose: 120.0 mg/kg/injection, schedule: Q01DX Z (ip), vehicle: methylcellulose (MC)) was 0 of 6 and the survivor count (dose: 240.0 mg/kg/injection, schedule: Q01DX Z (oral), vehicle: methylcellulose (MC)) was 1 of 6. For the same molecule, the survivor count (dose: 480.0 mg/kg/injection, schedule: Q01DX Z (oral), vehicle: methylcellulose (MC)) was 1 of 6.

For `CCOC(=O)c1ccc(NCC(C)(C)N)cc1`, the survivor count [5] was 0 of 6 and the survivor count [6] was 0 of 6.

`Clc1ccccc1OCCNC1CC1` was tested, and the survivor count [5] was 2 of 4 and the survivor count [6] was 1 of 4.

For `C=CCOC(=O)CCl`, the survivor count (dose: 83.0 mg/kg/injection, schedule: Q01DX Z (ip), vehicle: methylcellulose (MC)) was 6 of 6, the survivor count (dose: 125.0 mg/kg/injection, schedule: Q01DX Z (ip), vehicle: methylcellulose (MC)) was 6 of 6 and the survivor count (dose: 400.0 mg/kg/injection, schedule: Q01DX001 (ip), vehicle: saline with Tween-80) was 0 of 3.

With `c1ccc(CC23CCCCC2N3)cc1` (centres undefined) the survivor count (dose: 100.0 mg/kg/injection, schedule: Q01DX009 (ip), vehicle: saline with Tween-80) was 3 of 6 and the survivor count (dose: 200.0 mg/kg/injection, schedule: Q01DX009 (ip), vehicle: saline with Tween-80) was 1 of 6.

In the case of `CN(CCC#N)c1ccc(-c2cc(C(=O)O)c3cc4ccccc4cc3n2)cc1`, the survivor count (dose: 100.0 mg/kg/injection, schedule: Q04DX002 (ip), vehicle: Klucel (hydroxypropylcellulose) (HPC)) is reported as 3 of 3.

With `NN=C(c1ccccc1)c1ccccc1` the survivor count (dose: 20.93 mg/kg/injection, schedule: Q01DX009 (ip), vehicle: Klucel (hydroxypropylcellulose) (HPC)) was 6 of 6 and the survivor count (dose: 335.0 mg/kg/injection, schedule: Q01DX009 (ip), vehicle: Klucel (hydroxypropylcellulose) (HPC)) was 0 of 6.

With `C=C/C=C\N(CC)CC` the survivor count (dose: 100.0 mg/kg/injection, schedule: Q01DX009 (ip), vehicle: water) was 3 of 6, the survivor count (dose: 100.0 mg/kg/injection, schedule: Q04DX003 (ip), vehicle: water) was 5 of 6 and the survivor count (dose: 200.0 mg/kg/injection, schedule: Q04DX003 (ip), vehicle: water) was 1 of 6. The survivor count (dose: 400.0 mg/kg/injection, schedule: Q04DX003 (ip), vehicle: water) was 0 of 6.

With `NNC(=O)c1nc2ccccc2s1` the survivor count (dose: 300.0 mg/kg/injection, schedule: Q01DX001 (ip), vehicle: other) was 0 of 6.

For `N#CCOc1ccc(Cl)cc1`, the survivor count (dose: 50.0 mg/kg/injection, schedule: Q01DX009 (ip), vehicle: Klucel (hydroxypropylcellulose) (HPC)) was 5 of 6, the survivor count (dose: 100.0 mg/kg/injection, schedule: Q01DX009 (ip), vehicle: Klucel (hydroxypropylcellulose) (HPC)) was 0 of 6 and the survivor count (dose: 200.0 mg/kg/injection, schedule: Q04DX002 (ip), vehicle: Klucel (hydroxypropylcellulose) (HPC)) was 3 of 3. The survivor count (dose: 400.0 mg/kg/injection, schedule: Q04DX002 (ip), vehicle: Klucel (hydroxypropylcellulose) (HPC)) was 0 of 3.

`COc1cc(OC)c(/C=C/c2cc3c4ccccc4ccc3[n+](C)c2)c(OC)c1` was tested, and the survivor count (dose: 25.0 mg/kg/injection, schedule: Q01DX001 (ip), vehicle: saline with Tween-80) was 1 of 3.

In the case of `c1ccc(CCCSc2ccccc2)cc1`, the survivor count (dose: 400.0 mg/kg/injection, schedule: Q01DX009 (ip), vehicle: saline with Tween-80) is reported as 3 of 6.

In the case of `COc1ccc(C(=NN=C(N)N)c2ccc(OC)cc2)cc1`, the survivor count (dose: 120.0 mg/kg/injection, schedule: Q01DX Z (ip), vehicle: saline) is reported as 5 of 6 and the survivor count (dose: 960.0 mg/kg/injection, schedule: Q01DX Z (oral), vehicle: saline) is reported as 3 of 6.

For `Cc1cccc(C)c1NC(=O)NS(=O)(=O)c1ccccc1`, the survivor count [9] was 2 of 6.

In the case of `N=[N+]=CC(=O)CC(N)C(=O)O` (centres undefined), the survivor count (dose: 32.0 mg/kg/injection, schedule: Q03HX024 (ip), vehicle: saline) is reported as 10 of 10, the survivor count (dose: 64.0 mg/kg/injection, schedule: Q03HX024 (ip), vehicle: saline) is reported as 10 of 10 and the T/C (dose: 256.0 mg/kg/injection, schedule: Q03HX024 (ip), vehicle: saline) is reported as 148 % of control. The T/C [7] was 129 and 136 % of control, the T/C (dose: 600.0 mg/kg/injection, schedule: Q01DX009 (ip), vehicle: saline) was 148 % of control and the survivor count (dose: 2048.0 mg/kg/injection, schedule: Q04DX003 (ip), vehicle: saline) was 6 of 10.

For `CCCCCCCCCCOC(=O)COc1ccc(C(C)(C)C)cc1`, the survivor count (dose: 50.0 mg/kg/injection, schedule: Q01DX009 (ip), vehicle: saline) was 3 of 3.

`C#CCCCCC#CCCCCCl` was tested, and the survivor count [9] was 3 of 6.

`C=CCNC(=S)Nc1cccc2ccccc12` was tested, and the survivor count (dose: 100.0 mg/kg/injection, schedule: Q04DX003 (ip), vehicle: Klucel (hydroxypropylcellulose) (HPC)) was 6 of 6, the survivor count (dose: 200.0 mg/kg/injection, schedule: Q04DX003 (ip), vehicle: Klucel (hydroxypropylcellulose) (HPC)) was 4 of 6 and the survivor count [4] was 0 of 6.

For `CC(=[N-])CC(C)=O.CC(=[N-])CC(C)=O.[Ni+2]`, the survivor count (dose: 25.0 mg/kg/injection, schedule: Q04DX003 (ip), vehicle: Klucel (hydroxypropylcellulose) (HPC)) was 3 of 6, the survivor count (dose: 50.0 mg/kg/injection, schedule: Q01DX001 (ip), vehicle: Klucel (hydroxypropylcellulose) (HPC)) was 3 of 6 and the survivor count (dose: 100.0 mg/kg/injection, schedule: Q01DX001 (ip), vehicle: Klucel (hydroxypropylcellulose) (HPC)) was 0 of 6. The survivor count (dose: 200.0 mg/kg/injection, schedule: Q01DX001 (ip), vehicle: Klucel (hydroxypropylcellulose) (HPC)) was 0 of 6 and the survivor count (dose: 400.0 mg/kg/injection, schedule: Q01DX001 (ip), vehicle: Klucel (hydroxypropylcellulose) (HPC)) was 0 of 6.

For `CCOC(=O)NNC(=S)NCc1ccccc1`, the survivor count [8] was 0 of 6.

For `CN1CCN(C(=S)[S-])CC1.CN1CCN(C(=S)[S-])CC1.[Zn]`, the survivor count (dose: 40.0 mg/kg/injection, schedule: Q01DX001 (ip), vehicle: saline) was 0 of 6, the survivor count [1] was 0 of 6 and the survivor count [2] was 0 of 6. For the same molecule, the survivor count [3] was 0 of 6.
